Values quoted from earlier work as cited in PMC6966871.

Tested on: lung adenocarcinoma patient-derived xenograft (PDX)
Settings: particularly in tumors with high expression of c-MET; cited from earlier work

SMILES: O=C(Nc1ccc(Oc2ccnc3c2CCN3)c(F)c1)c1c[nH]cc(-c2ccc(F)cc2)c1=O
- therapeutic effect on lung adenocarcinoma PDX models: promising therapeutic effects
